Results from article PMC8778187, “A New Oxygen Containing Pyclen-Type Ligand as a Manganese(II) Binder for MRI and ^52Mn PET Applications: Equilibrium, Kinetic, Relaxometric, Structural and Radiochemical Studies” (Molecules, 2022).

Test: 52Mn labeling efficiency at different ligand concentrations (radio-TLC)
Conditions: 37 °C, 5 min

O=C(O)CN1CCNCCN(CC(=O)O)Cc2cccc(n2)C1 [H23,9-PC2A, pyclen-3,9-diacetate]
ligand concentration for complete radiolabeling with ^52Mn: 75 µM

O=C(O)CN1CCOCCN(CC(=O)O)Cc2cccc(n2)C1 [H23,9-OPC2A, 6-Oxa-3,9,15-triazabicyclo(9.3.1)pentadeca-1(15),11,13-triene-3,9-diacetic acid]
ligand concentration for complete radiolabeling with ^52Mn: 150 µM
